Reference: US5622955A, “Methods of treating cryptosporidium parvum” (The University of North Carolina at Chapel Hill, priority 1995, dated 1997)
Structures can show the parent of a compound that is named as a salt. At least one structure is not confirmed: it was looked up by name or label, or the drawing left a doubt.

Tested on: poly dA.dT
Test: DNA binding: increase in thermal melting of poly dA.dT
Text: ^a Increase in thermal melting of poly dA.dT. See, W. Wilson, et al.,

c1cc(-c2ccc(C3=NCCN3)cc2)nc(-c2ccc(C3=NCCN3)cc2)n1 [Compound 2, 2,4Bis[(4imidazolin-2-yl)phenyl]pyrimidine hydrochloride]
DNA binding (Increase in thermal melting of poly dA.dT): 22.7

c1ccc(-c2nccc(-c3ccc(C4=NCCN4)cc3)n2)cc1 [Compound 4, 2phenyl-4-[4(imidazolin-2-yl)phenyl]pyrimidine hydrochloride]
DNA binding (Increase in thermal melting of poly dA.dT): 0.6
